# From PubChem BioAssay AID504834 (National Center for Advancing Translational Sciences (NCATS), 2011)
# Hit rate of the full screen: of about 320,000 compounds, about 22,000 (6.9%) were called active. The shares of active, inactive and inconclusive entries below differ from those in the screen. Calls come from the whole dose curve; as a rule, active = well fitted inhibition curve with a large enough effect; inconclusive = small, poorly fitted or top-dose-only effect, or another doubt; inactive = no such curve, though single readings can be large or run the other way. A potency beside an inconclusive call is a rough fit, not a confirmed value.
# Assay: Primary qHTS for delayed death inhibitors of the malarial parasite plastid, 96 hour incubation
# Conditions: P. falciparum luciferase reporter growth; series mostly up to 28.7 µM
# Method in brief: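 Cell-based qHTS: luciferase-tagged P. falciparum in erythrocytes (2% hematocrit, 0.05% parasitemia final) incubated with compounds for 96 hours, 37 C, 5% CO2; luciferase detection reagent then added and luminescence measured.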
# Potency is the fitted concentration of half-maximal effect.
row,Compound,Potency
1,CCOC(=O)N1CCC(N2CCN(S(=O)(=O)c3ccc(NC(C)=O)cc3)CC2)CC1,"inconclusive: 13.1 µM [inhibitor, single point]"
2,CCOc1cc(C(=O)Nc2ccc(S(=O)(=O)Nc3nnc(CC)s3)cc2)cc(OCC)c1OCC,"inconclusive: 10.4 µM [inhibitor, single point]"
3,CCOC(=O)C(=N/O)/C(C)=N/NC(C)=O,inactive
4,COn1c2c(c3c4nonc4ccc31)CCCC2,"inconclusive: 18.5 µM [inhibitor, single point]"
5,CCOC(=O)Nc1ccc(C(=O)c2ccncc2)cc1,"inconclusive: 16.5 µM [inhibitor, partial curve, poor fit]"
6,O=C(/C=C/c1ccccc1)NCCS(=O)(=O)N1CCN(c2ccc(F)cc2)CC1,"inconclusive: 11.7 µM [inhibitor, single point]"
7,N#Cc1c(-c2cccnc2)c2c([nH]c1=S)CCCC2,inactive
8,CCOC(=O)N1CCN(C(=O)C2CCN(CC3CCCCC3)CC2)CC1,inactive
9,CCN(CC)S(=O)(=O)c1ccc(S(=O)(=O)N(CC(=O)Nc2ccccc2)Cc2ccco2)cc1,inactive
10,Cc1cc(C)nc(/N=C(\N)Nc2cccc(OCc3ccccc3)c2)n1,"inconclusive: 4.65 µM [inhibitor, partial curve]"
11,COc1ccc(C(=S)N2CCOCC2)cc1OC(=O)c1ccc(C)cc1,active: 2.94 µM
12,O=C1c2cccc(OCC(=O)N3CCCc4ccccc43)c2CCN1Cc1ccc(Br)cc1,"inconclusive: 8.28 µM [inhibitor, partial curve, poor fit]"
13,CCOC(=O)N1CCN(C(=O)CNC(=O)c2ccc(Br)cc2)CC1,"inconclusive: 4.65 µM [inhibitor, partial curve]"
14,CC1CCCC(NC(=O)c2ccc3c(SCC(=O)O)c4c(nc3c2)CCC4)C1C (configuration not stated),"inconclusive: 18.5 µM [inhibitor, single point]"
15,COc1ccccc1CNC(=O)c1ccc(Br)o1,inactive
16,COc1ccccc1NCC(=O)N/N=C/c1sccc1C,inactive
17,CC(=O)Oc1oc(-c2ccccc2)nc1C=Nc1ccccc1,inactive
18,Cc1nc2ccccn2c1C(=O)N/N=C/c1ccc2c(c1)OCO2,inactive
19,O=C(CSc1nc2[nH]ncc2c(=O)[nH]1)Nc1ccccc1C(F)(F)F,inactive
20,Cc1cccc(C(=O)NNC(=O)c2ccc(Br)cc2)c1,inactive
21,CCC(=O)N1CCN(c2ccc(NC(=O)c3cccs3)cc2)CC1,active: 13.1 µM
22,Cc1cccc(NC(=O)c2ccc(Cn3cc(C(F)(F)F)ccc3=O)cc2)c1,"inconclusive: 5.86 µM [inhibitor, partial curve]"
23,O=C(NCc1cccs1)c1noc2c1CCCC2,inactive
24,Cc1ccc(S(=O)(=O)N(C)C)cc1NC(=O)COC(=O)Cc1ccsc1,inactive

# In the list so far, two have a furan ring, fused or not:
row,Compound,Potency
9,CCN(CC)S(=O)(=O)c1ccc(S(=O)(=O)N(CC(=O)Nc2ccccc2)Cc2ccco2)cc1,inactive
15,COc1ccccc1CNC(=O)c1ccc(Br)o1,inactive

# The results go on.

row,Compound,Potency
1,CC(C)N(C)C1CCN(S(=O)(=O)c2ccc(-c3ccc(=O)[nH]n3)s2)CC1,"inconclusive: 18.5 µM [inhibitor, single point]"
2,CC1=CC(C)C2COC(c3ccc[n+](C)c3)C1C2C (configuration not stated),"inconclusive: 2.94 µM [inhibitor, partial curve, poor fit]"
3,CCCCCOC(=O)C1C(c2ccccc2)C(C(=O)O)C1c1ccccc1 (configuration not stated),"inconclusive: 14.7 µM [inhibitor, partial curve, poor fit]"
4,Cc1cc(C(=O)N2CCCC(C(=O)c3cc(F)ccc3F)C2)c(C)o1 (configuration not stated),"inconclusive: 18.5 µM [inhibitor, single point]"
5,CCC(CC)C1=NN2C(=N)/C(=C/c3ccc(OC(=O)c4ccco4)cc3)C(=O)N=C2S1,inactive
6,CCCCCCCN1CCN=C1N(C)C,inactive
7,CCCOc1ccc(/C=N/Nc2ccccc2[N+](=O)[O-])c(O)c1,inactive
8,COc1ccc(C)cc1S(=O)(=O)N1CCc2ccccc2C1,"inconclusive: 18.5 µM [inhibitor, single point]"
9,CS(=O)(=O)N(CC(=O)Nc1ccc(F)cc1)C1CCCCC1,inactive
10,CC(=O)N1N=C(C)CC1c1ccc(OCc2ccccc2)cc1 (configuration not stated),"inconclusive: 10.4 µM [inhibitor, single point]"
11,Cc1ccc(C(=O)CSc2nnc(COc3ccc(C#N)cc3)n2-c2ccccc2)cc1,"inconclusive: 7.38 µM [inhibitor, partial curve, poor fit]"
12,CCn1cc(C(=O)NCc2ccccc2OC)c(=O)c2cc(S(=O)(=O)N(C)C)ccc21,active: 10.4 µM
13,CC1CCN(c2ccccc2NC(=O)c2ccc([N+](=O)[O-])o2)CC1,inactive
14,CCOC(=O)N1CCN(C(=O)c2nc3ccccc3s2)CC1,"inconclusive: 6.57 µM [inhibitor, partial curve, poor fit]"
15,COc1cc2c(cc1OC)CN(CCOc1ccc(Br)cc1)CC2,"inconclusive: 0.37 µM [inhibitor, partial curve, poor fit]"
16,COc1ccccc1CCc1nnc(CCC(=O)NC(C)Cn2nc(C)cc2C)o1 (configuration not stated),inactive
17,CN(C)C1=NC[C@H](Cc2ccccc2)N1CCc1ccc(F)cc1,"inconclusive: 18.5 µM [inhibitor, single point]"
18,CCN(CC)C(=O)CSc1nc2c(sc(=S)n2-c2ccccc2)c(=O)n1Cc1ccco1,inactive
19,Cc1cc(OC(C)C(=O)NCCCN2CCOCC2)c2c(C)cc(=O)oc2c1 (configuration not stated),"inconclusive: 18.5 µM [inhibitor, partial curve, poor fit]"
20,O=S(=O)(c1ccc(Cl)cc1)c1cnc(-c2cccnc2)nc1-c1ccccc1,"inconclusive: 13.1 µM [inhibitor, single point]"
21,C=CCn1c(C)cc(-c2csc(NC(=O)C3=COCCO3)n2)c1C,"inconclusive: 2.94 µM [inhibitor, full curve]"
22,O=C(COC(=O)c1cccnc1Cl)c1cccc(Cl)c1,inactive
23,Cc1cccc(C(=O)NC(C)C(c2cccs2)N2CCOCC2)c1 (configuration not stated),"inconclusive: 13.1 µM [inhibitor, single point]"
24,CCc1cc(C(=O)c2ccc(OC)cc2)c(NC(=O)CN2CCCCC2)s1,active: 3.7 µM

# In a second layout: results already given
row | Compound | Potency
1 | CC(C)N(C)C1CCN(S(=O)(=O)c2ccc(-c3ccc(=O)[nH]n3)s2)CC1 | inconclusive: 18.5 µM [inhibitor, single point]
8 | COc1ccc(C)cc1S(=O)(=O)N1CCc2ccccc2C1 | inconclusive: 18.5 µM [inhibitor, single point]

# (listing goes on)

row,Compound,Potency
1,CCC(C(=O)O/N=C(\N)c1cccc(C)c1)c1ccccc1 (configuration not stated),inactive
2,Cc1ccc(S(=O)(=O)N2CCN(C(=O)C3CCN(C(=O)c4ccccc4C)CC3)CC2)cc1C,"inconclusive: 3.29 µM [inhibitor, full curve]"
3,Cc1cccc(Oc2coc3cc(OC(=O)c4cc5ccccc5oc4=O)ccc3c2=O)c1,inactive
4,Cc1ccccc1N1CCN(C2CCCN(C(=O)c3noc4c3CCCC4)C2)CC1 (configuration not stated),"inconclusive: 16.5 µM [inhibitor, single point]"
5,O=C1c2ccccc2C2(c3ccccc3)NCCCN12 (configuration not stated),inactive
6,CCn1cc(Cl)c(C(=O)N2N=C(c3ccc4ccccc4c3)CC2c2ccccc2O)n1 (configuration not stated),active: 1.47 µM
7,COc1ccccc1CNC(=O)c1cc(-c2ccccc2)n(Cc2cc(C)no2)n1,"inconclusive: 18.5 µM [inhibitor, single point]"
8,CSc1ccc(/C=N/N2CCN(Cc3ccc(Cl)cc3)CC2)cc1,inactive
9,COCCn1c(-c2ccc3ccccc3c2)nc2c1c(=O)[nH]c(=O)n2CC(C)C,"inconclusive: 10.4 µM [inhibitor, single point]"
10,CCc1ccc2nc(Nc3ccc(OC)cc3OC)c(C#N)cc2c1,inactive
11,CC(C)C[C@H](NC(=O)OC(C)(C)C)C(=O)N1CCC(C(=O)N[C@@H](Cc2c[nH]c3ccccc23)C(=O)O)CC1,"inconclusive: 3.29 µM [inhibitor, partial curve]"
12,Cc1ccc(S(=O)(=O)N2CCOCC2)cc1C(=O)NC(=S)N(Cc1ccccc1)C(C)C,"inconclusive: 11.7 µM [inhibitor, single point]"
13,C/C(=N/NC(=O)c1ccccc1)C(=O)O,"inconclusive: 0.0029 µM [inhibitor, full curve, poor fit]"
14,COc1ccc2nc(NC(=O)Nc3ccccc3)sc2c1,"inconclusive: 21.3 µM [inhibitor, single point]"
15,CCOc1cc(C(=O)Nc2ccncc2)cc(OCC)c1OCC,"inconclusive: 11.7 µM [inhibitor, partial curve, poor fit]"
16,COc1cccc2cc(C(C)N(CCCN3CCOCC3)C(=S)Nc3cc(C)cc(C)c3)oc12 (configuration not stated),"inconclusive: 9.28 µM [inhibitor, single point]"
17,O=C(Nc1ccc2oc(=O)ccc2c1)c1ccc(-c2ccccc2[N+](=O)[O-])o1,inactive
18,CCc1nnc(NC(=O)[C@@H](NC(=O)c2cccc(S(=O)(=O)N3CCOCC3)c2)C(C)C)s1,"inconclusive: 6.57 µM [inhibitor, partial curve, poor fit]"
19,COc1ccc(N2CCN(C(=O)c3ccc(CNS(=O)(=O)c4ccc(C)cc4)cc3)CC2)cc1,"inconclusive: 9.28 µM [inhibitor, partial curve, poor fit]"
20,COc1ccccc1CNC(=O)CCCNC(=O)c1ccc(Cl)cc1,inactive
21,O=C(Nc1ccccc1N1CCOCC1)c1ccc(Cl)nc1,"inconclusive: 7.38 µM [inhibitor, partial curve, poor fit]"
22,O=C(C1CCN(S(=O)(=O)c2cnc[nH]2)CC1)N1CCN(Cc2ccc3c(c2)OCO3)CC1,"inconclusive: 10.4 µM [inhibitor, partial curve, poor fit]"
23,Cc1cc(=O)n2nc(N3CCCC(C(=O)NC(C)c4ccccc4)C3)sc2n1 (configuration not stated),"inconclusive: 18.5 µM [inhibitor, single point]"
24,CCn1c(=O)cc(OCC(=O)N(C)C2CCCCC2)c2ccccc21,"inconclusive: 0.0029 µM [inhibitor, full curve, poor fit]"
